# Assay results from the M2OR odorant receptor database.
# Chains of the proteins cited; added tags and fusions are not shown. Lines headed by an entry give the natural chain unless they say otherwise; changes in a name come on top.
# UniProt Q8NGJ3: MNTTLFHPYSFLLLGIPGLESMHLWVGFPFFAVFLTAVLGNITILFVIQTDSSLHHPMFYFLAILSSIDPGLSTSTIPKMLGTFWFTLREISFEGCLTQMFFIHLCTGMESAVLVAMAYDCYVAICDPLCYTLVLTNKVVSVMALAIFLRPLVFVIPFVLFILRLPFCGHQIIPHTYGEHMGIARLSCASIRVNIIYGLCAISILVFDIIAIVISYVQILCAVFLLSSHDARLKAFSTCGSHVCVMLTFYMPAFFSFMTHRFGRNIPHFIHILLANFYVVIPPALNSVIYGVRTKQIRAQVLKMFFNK
# UniProt Q8NGJ4: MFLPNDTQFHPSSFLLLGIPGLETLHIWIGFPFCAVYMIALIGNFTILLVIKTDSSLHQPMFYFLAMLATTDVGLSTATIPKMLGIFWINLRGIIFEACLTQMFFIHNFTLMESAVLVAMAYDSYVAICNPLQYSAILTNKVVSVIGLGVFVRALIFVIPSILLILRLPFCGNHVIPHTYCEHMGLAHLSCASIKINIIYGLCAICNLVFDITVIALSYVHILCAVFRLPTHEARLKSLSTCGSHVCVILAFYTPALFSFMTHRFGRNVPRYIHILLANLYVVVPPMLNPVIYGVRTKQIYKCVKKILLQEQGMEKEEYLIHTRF
# UniProt Q8NGH9: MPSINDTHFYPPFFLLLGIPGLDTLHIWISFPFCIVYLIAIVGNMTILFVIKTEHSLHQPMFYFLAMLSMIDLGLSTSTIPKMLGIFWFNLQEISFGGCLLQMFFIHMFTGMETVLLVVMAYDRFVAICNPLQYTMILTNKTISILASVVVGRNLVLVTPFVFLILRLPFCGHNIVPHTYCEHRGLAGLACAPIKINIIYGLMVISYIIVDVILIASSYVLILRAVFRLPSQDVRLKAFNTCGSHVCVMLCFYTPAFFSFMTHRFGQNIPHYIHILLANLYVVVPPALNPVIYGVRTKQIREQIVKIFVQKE
# UniProt Q8NH55: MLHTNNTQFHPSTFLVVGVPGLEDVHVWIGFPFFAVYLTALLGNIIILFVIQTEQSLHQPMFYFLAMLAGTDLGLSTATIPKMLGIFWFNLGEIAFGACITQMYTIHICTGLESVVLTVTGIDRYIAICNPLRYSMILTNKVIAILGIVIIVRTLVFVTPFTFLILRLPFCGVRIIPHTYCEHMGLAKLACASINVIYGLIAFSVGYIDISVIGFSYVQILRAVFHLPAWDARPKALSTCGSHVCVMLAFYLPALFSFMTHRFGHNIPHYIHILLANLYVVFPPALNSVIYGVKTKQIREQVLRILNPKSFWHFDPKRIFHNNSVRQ
# This is a selection; strong and weak results do not stand in their true shares. The calls were merged from several studies; some rest on single wells. The list shows a part of the results.
# Experiments:
# Conditions in all cases: stereoisomer not certain
# OR51I2 (Homo sapiens) = target: T1, OR51I2 (Homo sapiens) (UniProt Q9H344)
# T1 sequence (whole entry): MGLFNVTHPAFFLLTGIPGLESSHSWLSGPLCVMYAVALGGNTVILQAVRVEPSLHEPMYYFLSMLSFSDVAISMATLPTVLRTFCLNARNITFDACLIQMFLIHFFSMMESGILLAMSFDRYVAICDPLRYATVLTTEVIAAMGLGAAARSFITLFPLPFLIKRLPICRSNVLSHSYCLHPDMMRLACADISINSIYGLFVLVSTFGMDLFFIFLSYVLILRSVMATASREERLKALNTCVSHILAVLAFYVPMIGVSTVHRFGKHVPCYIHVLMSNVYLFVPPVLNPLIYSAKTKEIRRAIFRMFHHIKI
# Procedure, shortened: (§1)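 Each entry records the cell line, G-protein, co-transfected protein and tags used. Methods varied with the source, often transient luciferase assays in mammalian cell lines. A receptor–molecule pair is called responsive (active) if the original authors judged its signal statistically different from baseline and non-responsive (inactive) otherwise.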
# OR51L1 (Homo sapiens) = target: T2, OR51L1 (Homo sapiens) (UniProt Q8NGJ5)
# T2 sequence (whole entry): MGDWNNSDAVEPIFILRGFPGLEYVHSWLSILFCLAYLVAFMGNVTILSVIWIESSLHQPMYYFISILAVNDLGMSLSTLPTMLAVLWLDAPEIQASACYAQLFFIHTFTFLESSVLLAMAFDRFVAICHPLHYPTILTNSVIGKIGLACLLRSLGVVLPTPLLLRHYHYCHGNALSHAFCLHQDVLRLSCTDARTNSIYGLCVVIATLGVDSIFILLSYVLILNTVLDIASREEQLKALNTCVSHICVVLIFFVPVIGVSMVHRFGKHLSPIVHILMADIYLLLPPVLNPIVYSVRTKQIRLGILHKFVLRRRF
# Procedure, shortened: as §1
# OR52B4 (Homo sapiens) = target: T3, OR52B4 (Homo sapiens) (UniProt Q8NGK2)
# T3 sequence (whole entry): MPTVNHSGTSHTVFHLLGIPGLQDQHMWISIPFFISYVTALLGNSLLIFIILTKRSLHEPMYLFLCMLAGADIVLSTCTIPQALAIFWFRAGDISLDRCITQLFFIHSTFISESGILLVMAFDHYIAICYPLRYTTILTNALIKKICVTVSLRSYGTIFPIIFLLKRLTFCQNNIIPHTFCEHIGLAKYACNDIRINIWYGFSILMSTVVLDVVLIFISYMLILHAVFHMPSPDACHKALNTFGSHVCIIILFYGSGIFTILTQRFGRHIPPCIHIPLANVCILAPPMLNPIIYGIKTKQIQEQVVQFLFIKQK
# Procedure, shortened: as §1
# OR52D1 (Homo sapiens) = target: T4, OR52D1 (Homo sapiens) (UniProt Q9H346)
# T4 sequence (whole entry): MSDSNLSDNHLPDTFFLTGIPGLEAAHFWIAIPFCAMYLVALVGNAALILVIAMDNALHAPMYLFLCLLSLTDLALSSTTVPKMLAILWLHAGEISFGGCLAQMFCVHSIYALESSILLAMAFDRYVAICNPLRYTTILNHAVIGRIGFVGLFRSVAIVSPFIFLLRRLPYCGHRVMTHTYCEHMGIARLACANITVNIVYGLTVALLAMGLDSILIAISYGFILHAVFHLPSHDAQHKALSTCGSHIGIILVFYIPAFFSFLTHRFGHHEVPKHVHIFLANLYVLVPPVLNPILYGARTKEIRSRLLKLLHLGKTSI
# Procedure, shortened: as §1
# OR51I1 (Homo sapiens) = target: T5, OR51I1 (Homo sapiens) (UniProt Q9H343)
# T5 sequence (whole entry): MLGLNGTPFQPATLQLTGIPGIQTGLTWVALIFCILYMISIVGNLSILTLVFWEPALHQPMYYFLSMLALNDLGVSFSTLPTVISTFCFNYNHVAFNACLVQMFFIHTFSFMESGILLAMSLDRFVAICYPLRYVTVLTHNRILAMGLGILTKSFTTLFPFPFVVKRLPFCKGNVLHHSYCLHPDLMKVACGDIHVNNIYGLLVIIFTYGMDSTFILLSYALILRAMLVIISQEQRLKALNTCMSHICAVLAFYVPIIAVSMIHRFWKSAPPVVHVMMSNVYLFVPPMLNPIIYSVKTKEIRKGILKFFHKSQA
# Procedure, shortened: as §1
# OR51S1 (Homo sapiens) = target: T6, OR51S1 (Homo sapiens) (UniProt Q8NGJ8)
# T6 sequence (whole entry): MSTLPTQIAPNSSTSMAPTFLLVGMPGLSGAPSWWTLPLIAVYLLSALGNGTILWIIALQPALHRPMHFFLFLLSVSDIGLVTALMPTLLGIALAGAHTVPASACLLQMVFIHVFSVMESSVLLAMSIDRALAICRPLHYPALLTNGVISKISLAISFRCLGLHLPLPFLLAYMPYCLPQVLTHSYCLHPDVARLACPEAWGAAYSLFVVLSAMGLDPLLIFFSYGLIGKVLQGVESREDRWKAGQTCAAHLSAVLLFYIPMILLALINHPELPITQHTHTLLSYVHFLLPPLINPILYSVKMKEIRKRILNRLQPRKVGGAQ
# Procedure, shortened: as §1
# OR52A4P (Homo sapiens) = target: T7, OR52A4P (Homo sapiens) (UniProt A6NMU1)
# T7 sequence (whole entry): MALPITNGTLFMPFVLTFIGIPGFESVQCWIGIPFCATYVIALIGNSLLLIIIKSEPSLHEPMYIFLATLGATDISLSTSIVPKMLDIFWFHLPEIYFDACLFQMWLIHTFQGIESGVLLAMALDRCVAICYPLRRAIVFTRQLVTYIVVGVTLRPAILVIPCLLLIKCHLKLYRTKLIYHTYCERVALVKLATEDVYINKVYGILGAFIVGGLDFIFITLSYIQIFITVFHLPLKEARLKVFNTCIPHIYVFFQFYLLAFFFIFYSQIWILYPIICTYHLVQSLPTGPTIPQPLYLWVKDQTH
# Procedure, shortened: as §1
# OR52A5 (Homo sapiens) = target: T8, OR52A5 (Homo sapiens) (UniProt Q9H2C5)
# T8 sequence (whole entry): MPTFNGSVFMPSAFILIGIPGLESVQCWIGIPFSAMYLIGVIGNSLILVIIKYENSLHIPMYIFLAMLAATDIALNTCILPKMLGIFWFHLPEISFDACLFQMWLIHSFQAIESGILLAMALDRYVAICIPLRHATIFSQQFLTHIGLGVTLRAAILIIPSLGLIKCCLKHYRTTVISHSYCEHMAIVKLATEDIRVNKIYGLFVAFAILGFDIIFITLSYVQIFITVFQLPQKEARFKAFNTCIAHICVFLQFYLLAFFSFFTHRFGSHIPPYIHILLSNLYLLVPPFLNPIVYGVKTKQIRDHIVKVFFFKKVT
# Procedure, shortened: as §1
# OR51M1 (Homo sapiens) = target: T9, OR51M1 (Homo sapiens) (UniProt Q9H341)
# T9 sequence (whole entry): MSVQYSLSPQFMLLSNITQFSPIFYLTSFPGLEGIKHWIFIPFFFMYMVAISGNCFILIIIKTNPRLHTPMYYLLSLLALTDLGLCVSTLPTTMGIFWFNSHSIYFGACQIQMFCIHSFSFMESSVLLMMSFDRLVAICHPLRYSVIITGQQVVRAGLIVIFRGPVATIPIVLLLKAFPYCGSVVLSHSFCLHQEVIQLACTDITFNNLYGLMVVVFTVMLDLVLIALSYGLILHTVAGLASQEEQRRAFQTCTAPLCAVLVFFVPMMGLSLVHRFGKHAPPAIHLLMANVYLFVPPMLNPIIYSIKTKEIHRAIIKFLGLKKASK
# Procedure, shortened: as §1
# OR51Q1 (Homo sapiens) = target: T10, OR51Q1 (Homo sapiens) (UniProt Q8NH59)
# T10 sequence (whole entry): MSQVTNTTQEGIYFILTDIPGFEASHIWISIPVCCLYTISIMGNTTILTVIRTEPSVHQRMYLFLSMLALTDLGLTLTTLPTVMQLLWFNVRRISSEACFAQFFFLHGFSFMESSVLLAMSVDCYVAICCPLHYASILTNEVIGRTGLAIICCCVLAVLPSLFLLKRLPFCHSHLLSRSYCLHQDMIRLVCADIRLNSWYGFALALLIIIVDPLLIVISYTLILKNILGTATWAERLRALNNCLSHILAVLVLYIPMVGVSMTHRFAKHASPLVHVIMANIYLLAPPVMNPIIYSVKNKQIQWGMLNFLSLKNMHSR
# Procedure, shortened: as §1
# OR51T1 (Homo sapiens) = target: T11, OR51T1 (Homo sapiens) (UniProt Q8NGJ9)
# T11 sequence (whole entry): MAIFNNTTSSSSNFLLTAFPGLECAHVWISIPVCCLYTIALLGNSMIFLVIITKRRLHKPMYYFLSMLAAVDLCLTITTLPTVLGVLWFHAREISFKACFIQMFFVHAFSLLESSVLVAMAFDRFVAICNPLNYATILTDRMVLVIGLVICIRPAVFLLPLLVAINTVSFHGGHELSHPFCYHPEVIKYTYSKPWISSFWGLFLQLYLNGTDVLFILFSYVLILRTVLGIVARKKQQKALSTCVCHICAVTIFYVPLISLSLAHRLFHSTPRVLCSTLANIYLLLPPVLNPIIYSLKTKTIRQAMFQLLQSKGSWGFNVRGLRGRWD
# Procedure, shortened: as §1
# OR52A1 (Homo sapiens) = target: T12, OR52A1 (Homo sapiens) (UniProt Q9UKL2)
# T12 sequence (whole entry): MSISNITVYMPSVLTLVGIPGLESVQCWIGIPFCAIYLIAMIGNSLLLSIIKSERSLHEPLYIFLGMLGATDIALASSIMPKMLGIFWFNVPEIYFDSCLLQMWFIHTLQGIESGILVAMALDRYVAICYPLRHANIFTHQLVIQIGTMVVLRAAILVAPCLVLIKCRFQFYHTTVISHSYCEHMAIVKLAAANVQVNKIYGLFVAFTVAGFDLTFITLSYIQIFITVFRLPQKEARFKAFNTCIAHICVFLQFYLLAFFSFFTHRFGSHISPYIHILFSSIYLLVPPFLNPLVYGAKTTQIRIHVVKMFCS
# Procedure, shortened: as §1
# OR52B2 (Homo sapiens) = target: T13, OR52B2 (Homo sapiens) (UniProt Q96RD2)
# T13 sequence (whole entry): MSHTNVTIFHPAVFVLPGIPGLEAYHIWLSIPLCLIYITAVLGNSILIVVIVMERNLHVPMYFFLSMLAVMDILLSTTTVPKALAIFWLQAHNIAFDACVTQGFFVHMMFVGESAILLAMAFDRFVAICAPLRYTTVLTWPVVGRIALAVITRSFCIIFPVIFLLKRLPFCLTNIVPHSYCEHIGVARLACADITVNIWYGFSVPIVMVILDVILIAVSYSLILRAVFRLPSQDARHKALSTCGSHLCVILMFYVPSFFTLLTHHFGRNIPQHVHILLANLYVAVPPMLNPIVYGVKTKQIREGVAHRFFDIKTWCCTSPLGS
# Procedure, shortened: as §1
# OR52B6 (Homo sapiens) = target: T14, OR52B6 (Homo sapiens) (UniProt Q8NGF0)
# T14 sequence (whole entry): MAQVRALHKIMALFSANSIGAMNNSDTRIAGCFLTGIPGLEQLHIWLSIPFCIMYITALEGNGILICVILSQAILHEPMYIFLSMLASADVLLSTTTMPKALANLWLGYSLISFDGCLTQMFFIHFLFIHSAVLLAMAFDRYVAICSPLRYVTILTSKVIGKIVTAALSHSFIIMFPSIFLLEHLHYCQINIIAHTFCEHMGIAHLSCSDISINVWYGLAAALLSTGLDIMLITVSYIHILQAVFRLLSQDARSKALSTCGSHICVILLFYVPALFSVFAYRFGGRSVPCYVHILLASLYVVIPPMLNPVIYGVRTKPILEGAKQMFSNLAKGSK
# Procedure, shortened: as §1
# OR52E1 (Homo sapiens) = OR52E1 (Homo sapiens) (UniProt Q8NGJ3)
# Procedure, shortened: as §1
# OR52E2 (Homo sapiens) = OR52E2 (Homo sapiens) (UniProt Q8NGJ4)
# Procedure, shortened: as §1
# OR52E4 (Homo sapiens) = OR52E4 (Homo sapiens) (UniProt Q8NGH9)
# Procedure, shortened: as §1
# OR52E5 (Homo sapiens) = OR52E5 (Homo sapiens) (UniProt Q8NH55)
# Procedure, shortened: as §1
Compound,odorant receptor agonist call (OR51I2 (Homo sapiens)),odorant receptor agonist call (OR51L1 (Homo sapiens)),odorant receptor agonist call (OR52B4 (Homo sapiens)),odorant receptor agonist call (OR52D1 (Homo sapiens)),odorant receptor agonist call (OR51I1 (Homo sapiens)),odorant receptor agonist call (OR51S1 (Homo sapiens)),odorant receptor agonist call (OR52A4P (Homo sapiens)),odorant receptor agonist call (OR52A5 (Homo sapiens)),odorant receptor agonist call (OR51M1 (Homo sapiens)),odorant receptor agonist call (OR51Q1 (Homo sapiens)),odorant receptor agonist call (OR51T1 (Homo sapiens)),odorant receptor agonist call (OR52A1 (Homo sapiens)),odorant receptor agonist call (OR52B2 (Homo sapiens)),odorant receptor agonist call (OR52B6 (Homo sapiens)),odorant receptor agonist call (OR52E1 (Homo sapiens)),odorant receptor agonist call (OR52E2 (Homo sapiens)),odorant receptor agonist call (OR52E4 (Homo sapiens)),odorant receptor agonist call (OR52E5 (Homo sapiens))
CC(=O)c1ccccc1,inactive,inactive,inactive,active,–,–,–,–,–,–,–,–,–,–,–,–,–,–
CCCCCCCCCC=O,inactive,inactive,inactive,active,inactive,inactive,inactive,inactive,–,–,–,–,–,–,–,–,–,–
CC12C=CCC1C1CCC3CC(=O)CCC3(C)C1CC2 (configuration not stated),–,–,inactive,–,inactive,inactive,inactive,inactive,inactive,inactive,inactive,inactive,inactive,inactive,inactive,inactive,inactive,inactive
